Here are results for 32 compounds from PubChem BioAssay AID328 (DTP/NCI, 2004).

The list does not hold the whole screen: it gathers tests that were run many times, whatever their T/C, doses with no T/C, and many T/C values between a quarter and a half above the control. Other doses and runs of a compound stand elsewhere. T/C is the treated group as % of the vehicle group. Some entries give survivors of the animals treated and no T/C: the source holds a T/C of zero for them, seemingly a mark for toxic or unscored doses. Some doses without a T/C left all or most animals alive at the check, yet need not have been tolerated: the source hardly ever lists a survival T/C far under the control, and the zero likely stands for such cases as well. Counts of survivors are from the toxicity check (mostly the fifth day) where no day follows; animals may have died later. Schedules are NCI's codes, taken here to give the interval after Q, in days (D) or hours (H), and the number of doses after X. Some entries hold several experiments; the results are listed from low to high. Some structures stand for samples that the source files as different forms (salt, stereo form or complex); doses refer to the form tested. Where survival is the endpoint, this PubChem deposit counts one and a half times the control or more as active, and values a quarter to a half above the control carry no call in these data; other NCI protocols may use other cut-offs. Some T/C values carry the count of animals alive at the toxicity check (mostly the fifth day); without a count, all were alive then.

In the assay the test system is BDF1 mice, P388 leukemia ip, median survival T/C. Kind of assay: NCI In Vivo Anticancer Drug Screen. Data for tumor model P388 Leukemia (intraperitoneal) in B6D2F1 (BDF1) mice. To be noted: T/C endpoint: median survival time, higher T/C = longer survival. Put shortly: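 T/C = treated-group survival ÷ vehicle-control survival; tumour transplanted into mice before dosing.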

[1] abbreviates: dose: 25.0 mg/kg/injection, schedule: Q01DX009 (ip), vehicle: saline.
The mark [2] stands for this setting: dose: 100.0 mg/kg/injection, schedule: Q01DX009 (ip), vehicle: Klucel (hydroxypropylcellulose) (HPC).
The mark [3] stands for this setting: dose: 200.0 mg/kg/injection, schedule: Q01DX009 (ip), vehicle: Klucel (hydroxypropylcellulose) (HPC).
Where [4] appears, read: dose: 100.0 mg/kg/injection, schedule: Q01DX009 (ip), vehicle: saline with Tween-80.
[5] abbreviates: dose: 200.0 mg/kg/injection, schedule: Q01DX009 (ip), vehicle: saline with Tween-80.
The mark [6] stands for this setting: dose: 50.0 mg/kg/injection, schedule: Q01DX009 (ip), vehicle: saline with Tween-80.
The mark [7] stands for this setting: dose: 100.0 mg/kg/injection, schedule: Q01DX009 (ip), vehicle: saline.
Where [8] appears, read: dose: 200.0 mg/kg/injection, schedule: Q04DX003 (ip), vehicle: saline.
Where [9] appears, read: dose: 400.0 mg/kg/injection, schedule: Q01DX009 (ip), vehicle: Klucel (hydroxypropylcellulose) (HPC).
Where [10] appears, read: dose: 400.0 mg/kg/injection, schedule: Q01DX009 (ip), vehicle: saline.

In the case of `CCCCCCOc1cccc(OCCCC[N+]2(CC)CCCCC2)c1`, the survivor count is 0 of 6 (dose: 12.5 mg/kg/injection, schedule: Q01DX009 (ip), vehicle: saline) and 0 of 6 under setting [1].

`NNC(=S)SCc1ccccc1`: the survivor count (dose: 60.0 mg/kg/injection, schedule: Q01DX009 (ip), vehicle: saline with Tween-80) is reported as 3 of 7.

In the case of `CC[N+](CC)(CC)CC.N#C/C([SH2+])=C(/[SH2+])C#N.N#C/C([SH2+])=C(/[SH2+])C#N.[Cu+2]`, the survivor count reads like this: (dose: 100.0 mg/kg/injection, schedule: Q01DX001 (ip), vehicle: Klucel (hydroxypropylcellulose) (HPC)) 0 of 6; (dose: 200.0 mg/kg/injection, schedule: Q01DX001 (ip), vehicle: Klucel (hydroxypropylcellulose) (HPC)) 0 of 6; (dose: 400.0 mg/kg/injection, schedule: Q01DX001 (ip), vehicle: Klucel (hydroxypropylcellulose) (HPC)) 0 of 6.

As for `O=S1(=O)CCN(C2CC2)CC1`, the survivor count runs as follows: under setting [2], 0 of 6; under setting [3], 0 of 6.

As for `CCOC(=O)C(OCc1ccccc1)(C(=O)Cl)C(C)C` (stereo not given), the survivor count is reported as 0 of 6 under setting [4] and 0 of 6 under setting [5].

As to `CSC(=S)NN=C1CCCCC1`, the survivor count is 1 of 6 under setting [6], 0 of 6 under setting [4] and 0 of 6 under setting [5].

`COc1cc([C@@H]2c3cc4c(cc3C(Br)[C@H]3COC(=O)[C@H]23)OCO4)cc(OC)c1OC` (stereo not given in full): the survivor count (dose: 60.0 mg/kg/injection, schedule: Q01DX009 (ip), vehicle: Klucel (hydroxypropylcellulose) (HPC)) was 8 of 10.

In the case of `OC(c1cc(-c2ccc(C(F)(F)F)cc2)nc(C(F)(F)F)c1)C1CCCCN1` (stereo not given), the survivor count runs as follows: (dose: 50.0 mg/kg/injection, schedule: Q01DX009 (ip), vehicle: saline) 3 of 6; under setting [4], 2 of 6; under setting [7], 0 of 6; under setting [5], 0 of 6; (dose: 200.0 mg/kg/injection, schedule: Q01DX009 (ip), vehicle: saline) 0 of 6.

`O=C1CCCN1.O=C1CCCN1.[Br][Co][Br]`: the T/C (dose: 67.0 mg/kg/injection, schedule: Q01DX009 (ip), vehicle: saline) was 127 % of control and the T/C under setting [7] is 130 % of control. Also, the survivor count was 0 of 6 and 3 of 6 (dose: 150.0 mg/kg/injection, schedule: Q01DX009 (ip), vehicle: saline); 4 of 6 under setting [8].

`Nc1nc(SSc2nc(N)nc3c2ncn3C2CC(O)C(CO)O2)c2ncn(C3CC(O)C(CO)O3)c2n1` (stereo not given): the survivor count under setting [3] is listed as 6 of 6 and the survivor count under setting [9] is on record as 2 of 6.

On to `S=C(NNc1ccccc1)Nc1ccccc1`, for which, under setting [3], the survivor count is on record as 6 of 6.

Consider `O=C1NN=C(c2ccc(Cl)cc2)CS1`, for which the survivor count under setting [5] was 0 of 6.

For `O=C1CCC(=O)N1CCC(=O)N(C(=O)NC1CCCCC1)C1CCCCC1`, the T/C under setting [4] was 134 % of control.

As to `COC(=O)C(c1ccccc1)C(Br)C(=O)c1ccccc1` (stereo not given), the survivor count is 6 of 6 under setting [2] and 6 of 6 under setting [9].

In the case of `C=C1C(=O)O[C@@H]2C[C@@H](C)[C@@H]3[C@@H](OC4OC(COC(C)=O)C(O)C(O)C4O)CC(=O)[C@@]3(C)C[C@H]12` (stereo not given in full), the T/C (dose: 35.0 mg/kg/injection, schedule: Q01DX009 (ip), vehicle: saline) is 138 % of control.

`CCOC(=O)c1c(NC(=O)CCC(=O)Nc2sc(C)c(C)c2C(=O)OCC)sc(C)c1C`: the survivor count (dose: 100.0 mg/kg/injection, schedule: Q04DX003 (ip), vehicle: saline) is reported as 6 of 6; the survivor count under setting [5] is reported as 6 of 6; the survivor count under setting [8] was 6 of 6.

`COc1ccc2nc3cc(Cl)ccc3c(NCCO)c2c1`: for the setting “dose: 300.0 mg/kg/injection, schedule: Q01DX010 (ip), vehicle: saline”, the survivor count is listed as 2 of 7.

For the compound `C=C1C(=O)OC2/C=C(\C)CC(O)/C=C(/C)CC(OC(=O)C3(C)OC3C)C12` (stereo not given), the survivor count (dose: 400.0 mg/kg/injection, schedule: Q04DX002 (ip), vehicle: Klucel (hydroxypropylcellulose) (HPC)) was 4 of 6.

In the case of `CN(C(=N)N)c1ccc(C(=O)Oc2ccc([N+](=O)[O-])cc2)cc1`, the T/C (dose: 37.5 mg/kg/injection, schedule: Q04DX003 (ip), vehicle: water) was 125 % of control.

Regarding `c1ccc(-c2cscc2-c2ccccc2)cc1`, the survivor count by setting is: under setting [1], 6 of 6; under setting [8], 6 of 6.

For the compound `O=c1ccc(=O)c2c(=O)c3ccccc3c(=O)c1=2`, the survivor count under setting [3] is given as 5 of 6 and the survivor count (dose: 400.0 mg/kg/injection, schedule: Q04DX003 (ip), vehicle: Klucel (hydroxypropylcellulose) (HPC)) is given as 4 of 6.

As for `O=c1cccc2n1CC1CNC[C@H]2C1`, the survivor count (dose: 12.0 mg/kg/injection, schedule: Q01DX010 (ip), vehicle: saline) is 0 of 6.

As for `NC(CSCc1ccccc1)(CSCc1ccccc1)C(=O)O`, the survivor count (dose: 25.0 mg/kg/injection, schedule: Q01DX009 (ip), vehicle: other) is 6 of 6 and the survivor count (dose: 100.0 mg/kg/injection, schedule: Q01DX009 (ip), vehicle: other) was 6 of 6.

Turning to `CCCCn1c2nc(=O)[nH]c(=O)c-2[n+]([O-])c2ccccc21`, the survivor count was 0 of 6 (dose: 200.0 mg/kg/injection, schedule: Q01DX001 (ip), vehicle: saline with Tween-80) and 0 of 6 (dose: 400.0 mg/kg/injection, schedule: Q01DX001 (ip), vehicle: saline with Tween-80).

In the case of `S=c1sc(-c2ccc(Cl)cc2)c[se]1`, the survivor count is, setting by setting: (dose: 6.25 mg/kg/injection, schedule: Q01DX009 (ip), vehicle: saline with Tween-80) 6 of 6; (dose: 25.0 mg/kg/injection, schedule: Q01DX009 (ip), vehicle: saline with Tween-80) 6 of 6; under setting [6], 5 of 6; under setting [4], 6 of 6.

With `CC(C)n1c2c([n+](C)c1/C=C/c1ccccc1)C(=O)c1ccccc1C2=O`, the T/C reads like this: (dose: 1.0 mg/kg/injection, schedule: Q01DX009 (ip), vehicle: saline with Tween-80) 126 % of control; (dose: 1.0 mg/kg/injection, schedule: Q01DX010 (ip), vehicle: saline) 127 % of control. In addition, the survivor count was 4 of 6 (dose: 2.0 mg/kg/injection, schedule: Q01DX009 (ip), vehicle: Klucel (hydroxypropylcellulose) (HPC)); 4 of 6 (dose: 2.0 mg/kg/injection, schedule: Q01DX009 (ip), vehicle: saline with Tween-80); 3 of 6 (dose: 4.0 mg/kg/injection, schedule: Q01DX009 (ip), vehicle: Klucel (hydroxypropylcellulose) (HPC)); 2 of 6 (dose: 4.0 mg/kg/injection, schedule: Q01DX009 (ip), vehicle: saline with Tween-80); 3 of 6 (dose: 4.0 mg/kg/injection, schedule: Q01DX010 (ip), vehicle: saline).

As for `O=C(O)CNCc1ccc(F)cc1`, the T/C (dose: 400.0 mg/kg/injection, schedule: Q04DX003 (ip), vehicle: saline) was 130 % of control [5 of 6 alive].

In the case of `CCCCCCCCCCCCCCCc1ccc(C(=O)C[n+]2ccccc2)cc1`, the T/C was 131 % of control (dose: 25.0 mg/kg/injection, schedule: Q04DX003 (ip), vehicle: saline with Tween-80) and 136 % of control (dose: 37.5 mg/kg/injection, schedule: Q04DX003 (ip), vehicle: saline with Tween-80).

As for `NC(N)=Nc1ccc(C(=O)Nc2ccc([N+](=O)[O-])cc2)cc1`, under setting [10], the survivor count is given as 4 of 6.

As for `OC1CC[N-]CC1.OC1CC[N-]CC1.[Cl][Pt+2]([Cl])([Cl])[Cl]`, the survivor count is recorded as 4 of 6 (dose: 100.0 mg/kg/injection, schedule: Q04DX003 (ip), vehicle: saline with Tween-80) and 1 of 6 (dose: 200.0 mg/kg/injection, schedule: Q04DX003 (ip), vehicle: saline with Tween-80).

`[N-]=[N+]=CC(=O)OCC(N)C(=O)O` (stereo not given): under setting [10], the survivor count was 5 of 6.

On to `CC(C)CSc1nc(N)nc2nc[nH]c12`, for which the survivor count (dose: 400.0 mg/kg/injection, schedule: Q04DX003 (ip), vehicle: saline with Tween-80) is listed as 0 of 6.
